Data: publication PMC5851652
These are yes or no findings as the source states them, for the method shown. Binding seen in cells or lysates may run through a third protein. Binding calls can cover weak binding; strength is not graded here. Tags and fused reporters may be left off the sequences shown.

Legend:
Assay in all cases: co-IP; anti-myc immunoprecipitation of RIPA lysates of co-transfected 293T cells; immunoblot with anti-V5 and anti-myc
[1] = target: ORF20B 1-220-myc (Kaposi's sarcoma-associated herpesvirus (KSHV))
[2] = target: ORF20B 1-186-myc (Kaposi's sarcoma-associated herpesvirus (KSHV))
[3] = target: ORF20B 1-235-myc (Kaposi's sarcoma-associated herpesvirus (KSHV))

Measured: binding

B1: human OASL-V5 WT (protein, UniProt Q15646 1-514)
chain: MALMQELYSTPASRLDSFVAQWLQPHREWKEEVLDAVRTVEEFLRQEHFQGKRGLDQDVRVLKVVKVGSFGNGTVLRSTREVELVAFLSCFHSFQEAAKHHKDVLRLIWKTMWQSQDLLDLGLEDLRMEQRVPDALVFTIQTRGTAEPITVTIVPAYRALGPSLPNSQPPPEVYVSLIKACGGPGNFCPSFSELQRNFVKHRPTKLKSLLRLVKHWYQQYVKARSPRANLPPLYALELLTIYAWEMGTEEDENFMLDEGFTTVMDLLLEYEVICIYWTKYYTLHNAIIEDCVRKQLKKERPIILDPADPTLNVAEGYRWDIVAQRASQCLKQDCCYDNRENPISSWNVKRARDIHLTVEQRGYPDFNLIVNPYEPIRKVKEKIRRTRGYSGLQRLSFQVPGSERQLLSSRCSLAKYGIFSHTHIYLLETIPSEIQVFVKNPDGGSYAYAINPNSFILGLKQQIEDQQGLPKKQQQLEFQGQVLQDWLGLGIYGIQDSDTLILSKKKGEALFPAS
binds: all assays above
